# Measured values as given in PubChem BioAssay AID662 (National Center for Advancing Translational Sciences (NCATS), 2007).
# This is one part of the list. Further columns of the screen follow, without active or inactive calls. Compounds called inactive in the main read-out are mostly missing here. Words in brackets tell the shape of the fitted curve; partial curves, single points and poor fits give uncertain potencies.
# Assay: Cell signaling CRE-BLA (Fsk stim)
# Conditions: CHO CRE-bla reporter (cAMP response element driving beta-lactamase), forskolin EC10, beta-lactamase ratio; measured here: 460 nm blue channel
# Procedure, shortened: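 Using CellSensor CRE-bla CHO cells in Opti-MEM with 0.5% dialyzed FBS, compounds were titrated with EC10 NKH 477 for 3 h at 37 °C. CCF4 ratio (460/530 nm) gave %Activity; AC50 derived.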
row,Compound,AC50
1,CCNS(=O)(=O)c1ccc(NC(=O)Cn2nc(C(F)(F)F)cc2C)cc1,"0.00501 µM [falling, full curve, poor fit]"
2,CCc1nc(N)c(C#N)c(-c2ccc(OC)c(OC)c2)c1C,"12.6 µM [rising, partial curve]"
3,Cc1c2c(nc3c(C(=O)NC4CCCC4)cnn13)CCCC2,"2 µM [rising, full curve]"
4,COc1cc2[nH]c(=O)n(CCCC(=O)NCCc3ccccc3)c(=O)c2cc1OC,"12.6 µM [rising, single point]"
5,CCCn1c2ccccc2c2nc3ccccc3nc21,"0.00794 µM [rising, full curve, poor fit]"
6,c1cncc(-c2nc(NCc3cccs3)c3ccccc3n2)c1,"6.31 µM [rising, partial curve]"
7,CC1CCC(NC(=O)c2cc3c(=O)n(C)c4ccccc4c3n2C)CC1 (stereo not drawn),"3.16 µM [rising, single point]"
8,Cc1ccc(C(=O)Nc2ccc3c(c2)nc2n3CCSC2)cc1,"0.631 µM [rising, full curve]"
9,N#CCCNCC1(c2ccccc2)CCCC1,"5.01 µM [falling, single point]"
10,CCn1nc(NS(=O)(=O)c2ccccc2)c2cc3cccc(C)c3nc21,"25.1 µM [rising, single point]"
11,COc1ccc(C(=O)N2CCN(c3nc4cc(C)ccc4cc3C#N)CC2)c(OC)c1,"25.1 µM [falling, single point]"
12,O=C(c1ccc(CS(=O)(=O)c2ccccc2)o1)N1CCN(c2ncccn2)CC1,"12.6 µM [rising, partial curve]"
13,O=C(Nc1nc(-c2nc3ccccc3s2)cs1)C1CC1,"12.6 µM [rising, partial curve]"
14,C=C(C)COc1ccc(-c2[nH]ncc2Oc2cccc(OC)c2)c(O)c1,"10 µM [falling, partial curve]"
15,COc1ccc(OC)c(S(=O)(=O)N2CCCCC2C(=O)N2CCN(c3ccccn3)CC2)c1 (stereo not drawn),"25.1 µM [rising, single point]"
16,C=CCNC(=O)c1ccncc1,"3.16 µM [falling, partial curve]"
17,N#Cc1c(NC(=O)c2cc(-n3cnnc3)ccc2Cl)sc2c1CCCC2,"3.16 µM [falling, full curve]"
18,COc1cccc(-c2nc(CS(=O)(=O)CC(=O)N3CCN(c4ccccn4)CC3)c(C)o2)c1,"12.6 µM [rising, single point]"
19,CC(C)(C)NC(=O)C1N(c2cccnc2)C(=O)C2C(C(=O)Nc3ccccc3F)C3(C)C=CC21O3 (stereo not drawn),"5.01 µM [rising, single point]"
20,Cc1cc2nc(SC(C)C(=O)O)[nH]c2cc1C (stereo not drawn),"25.1 µM [falling, single point]"
21,Cc1cc(N2CCN(C(=O)c3ccco3)CC2)n2nc(C)c(-c3ccc(Cl)cc3)c2n1,"25.1 µM [rising, single point]"
22,Cc1cc(C)n2c(SCC(=O)N3CCN(S(=O)(=O)c4ccc(Cl)cc4)CC3)nnc2n1,"5.01 µM [falling, single point]"

# Laid out differently: entries from further up
row | Compound | AC50
1 | CCNS(=O)(=O)c1ccc(NC(=O)Cn2nc(C(F)(F)F)cc2C)cc1 | 0.00501 µM [falling, full curve, poor fit]
2 | CCc1nc(N)c(C#N)c(-c2ccc(OC)c(OC)c2)c1C | 12.6 µM [rising, partial curve]

# (next part)

row,Compound,AC50
1,CC(C)CCn1c(=O)c2ccccc2n2c(COC(=O)c3ccc(S(=O)(=O)N(C)C)cc3)nnc12,"12.6 µM [rising, single point]"
2,O=c1[nH]c(CN2CCN(Cc3ccccc3)CC2)nc2sc3c(c12)CCC3,"3.16 µM [rising, partial curve]"
3,Cn1c(=O)n(C)c2cc(S(=O)(=O)NCCc3ccccc3)ccc21,"0.398 µM [rising, full curve]"
4,COc1ccc(NC(=O)c2oc3ccc(S(=O)(=O)N4CCC5(CC4)OCCO5)cc3c2C)cc1,"5.01 µM [falling, partial curve]"
5,CC(CCO)Nc1nc2c(c(=O)n(C)c(=O)n2C)n1Cc1cccc(Br)c1 (stereo not drawn),"12.6 µM [rising, partial curve]"
6,CCCn1c(=O)[nH]c(=O)c2c1nc(-c1ccc3c(c1)OCCO3)n2CCN1CCOCC1,"5.01 µM [rising, full curve]"
7,CCOC(=O)C1CCN(C(=O)CCc2nc3ccccc3[nH]2)CC1,"0.1 µM [falling, full curve, poor fit]"
8,Cc1ccc(S(=O)(=O)Nc2ccc3oc(=O)sc3c2)c(C)c1,"15.8 µM [falling, single point]"
9,O=C(c1cc(-c2ccco2)nn1-c1cccc(Cl)c1)N1CCCCC1,"0.251 µM [falling, partial curve]"
10,CCCN(c1nc(C)cc(OC)n1)S(=O)(=O)c1ccccc1,"0.398 µM [falling, single point]"
11,O=C(CCN1C(=O)C2C3C=CC(C3)C2C1=O)Nc1ccc(F)cc1 (stereo not drawn),"25.1 µM [falling, single point]"
12,CN(C)CCSc1nc(N)c2c3c(sc2n1)CN(C)CC3,"5.01 µM [falling, single point]"
13,CCOC(=O)CNC(=O)CSc1nnc(Cn2c(=O)sc3ccccc32)n1-c1ccccc1C,"25.1 µM [rising, single point]"
14,Cn1c(=O)c(-c2cccc(C#N)c2)nc2cnc(Oc3ccccc3)nc21,"10 µM [rising, single point]"
15,COc1ccccc1N1CCN(CC(O)COc2ccc3c(C)cc(=O)oc3c2)CC1 (stereo not drawn),"12.6 µM [rising, partial curve]"
16,Cc1[nH]nc2ncc(C(=O)c3ccccc3O)cc12,"3.98 µM [falling, partial curve]"
17,Brc1ccc2[nH]c3nc(SCCN4CCOCC4)nnc3c2c1,"2 µM [rising, full curve]"
18,c1nc(N2CCC3(CC2)OCCO3)c2c3c(sc2n1)CCCC3,"3.16 µM [rising, single point]"
19,O=C(Oc1ccc(Cl)c2cccnc12)N1CCOCC1,"7.94 µM [rising, partial curve]"
20,Brc1ccc2c(c1)c1nc3ccccc3nc1n2CCN1CCOCC1,"7.94 µM [rising, partial curve]"
21,Cc1[nH]c(N)nc(=S)c1CCC(=O)O,"0.158 µM [falling, partial curve, poor fit]"
